Test results: US20200268832A1, “COMPOSITIONS FOR DELIVERY TO AND TREATMENT OF ATHEROSCLEROTIC PLAQUES” (Sanford Burnham Prebys Medical Discovery Institute, priority 2015, published 2020)
“Also recorded” adds a separate entry of the source. Part of at least one peptide drawing is inferred or uncertain, most often the ends.

How the values were obtained:
aortic plaque = test: Aortic plaque in ApoE mice on long-term HFD; format: in vivo; conditions: long-term (>16 weeks) HFD
p32 protein = target: T1, p32 protein (Homo sapiens, UniProt Q07021); test: Fluorescence polarization assay: displacement of FAM-TT1 from p32 (HTS, dose response, unlabeled peptide competition); format: binding; conditions: unlabeled peptides titrated up to 100 μM
T1 construct: 6xHis; host or cells: Rosetta-gami-2 cells (Novagen); an E. coli strain by own knowledge
T1 sequence (Q07021 74-282): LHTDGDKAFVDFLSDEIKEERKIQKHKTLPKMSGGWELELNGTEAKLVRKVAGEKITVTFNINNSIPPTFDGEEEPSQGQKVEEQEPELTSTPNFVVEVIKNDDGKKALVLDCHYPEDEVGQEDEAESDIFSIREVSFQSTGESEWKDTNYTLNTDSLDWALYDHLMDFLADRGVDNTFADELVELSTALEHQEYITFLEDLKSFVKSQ
Description: Fluorescence polarization (FP)-based assay was used for solution-based screening of compound libraries for p32 binding compounds. […] In FP assay, peptide conjugated with a fluorescent label (fluorescein-AM, FAM) is excited with polarized light. […] 6×-His-Tagged p^32 was expressed in Rosetta-gami-2 cells (Novagen). The protein was purified by IMAC using HIS-select resin (Sigma) with an imidizole gradient from 20-300 mM and eluted fractions were analyzed on analytical SDS-PAGE. […] Fluorescence polarization is given as milli-polarization (mP) value, which is obtained from equation (1):
mP=1000*(S−P)/(S+P), (Eq. 1)
The assay was initially set up in 20 μl well volume in 384 well plate (Corning Life Sciences), and measurements were carried out using PheraStar FS plate reader (BMG LABTECH, Ortenberg, Germany) in quadruplicate. […] Optimal concentration of fluorescein (FAM) labeled-peptides for the assay was determined by measuring the limit of detection (LOD), signal-to-background ratio (S/B), and stability of mP value over series of peptide concentrations. In the binding assay, the concentration of FAM-peptide was kept constant, and the FP was measured over the range of target protein concentrations. […]
FAM-TT-1 and p32 solutions are prepared just before experiment, and stored on ice during the screen; the peptide is shielded from light. • 1. […] Read plate on PheraStar FS […]

RAW cells = test: Apoptosis in cultured RAW cells under hypoxia; format: cell-based; conditions: hypoxic conditions
[1] = test system: carotid artery atherosclerotic plaque; test: Carotid artery atherogenesis induced by complete or partial ligation plus HFD in ApoE null mice; format: in vivo; conditions: complete and partial arterial ligation models; 200 μg daily IV for 2 weeks
plaque macrophages = test: Apoptosis (TUNEL) in plaque macrophages of ApoE null mice; format: in vivo; conditions: 200 μg peptide IV, 3 and 24 h

Which “effect on aortic plaque” value (aortic plaque) does the source give for `C[C@@H](O)[C@@H]1NC(=O)[C@H](CCCNC(=N)N)NC(=O)[C@H](CCCCN)NC(=O)[C@H](CC(N)=O)NC(=O)CNC(=O)[C@@H](N)CSSC[C@@H](C(=O)O)NC(=O)CNC(=O)[C@H](CCCNC(=N)N)NC1=O` [LyP-1, CGNKRTRGC] here?
The value was “inhibitory effect on aortic plaque by the peptide, but less robust than for carotid artery plaques”.

And the “inhibition (dislocation) of FAM-TT1 binding to p32 by unlabeled peptide” value (p32 protein)?
The value was “inhibited in a dose-dependent manner; also recorded: dislocated FAM-TT1 at high concentrations”.

And the “effect on apoptosis of RAW cells” value (RAW cells)?
Its value is “pro-apoptotic effect”.

And the effect on plaque [1]?
The effect on plaque was “significantly (p<0.05) reduces plaque”.

What about the “effect on apoptosis of plaque macrophages” value (plaque macrophages) of the same compound?
Its value is “pro-apoptotic effect”.
